Measured data: PubChem BioAssay AID504804 (Drosophila RNAi Screening Center, 2011)

- Test: 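dsRNAs that improve Kc cell survival under doxorubicin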 (primary screen)
- System: Drosophila Kc cells
- Reagents: long dsRNA against Drosophila genes, 0.5 µg dsRNA per well
- Duration: 96 h (48 h knock-down, then 48 h drug)
- Challenge: doxorubicin 5 µg/ml for 48 h, added 48 h after dsRNA
- Measured: 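Viability measured as cellular ATP by luminescence after 48 h knock-down then 48 h doxorubicin at 5 µg/ml; unnormalised plate counts for each replicate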
- Scale: raw ATP luminescence: higher = more viable cells, protection from doxorubicin
- Hit rule: 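Active when both duplicate wells lie at least 2 SD above the plate mean and protection is confirmed by rescreening and independent dsRNAs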
The screen tested about 19,000 reagents; this is a random part of those that have a named target and a result. Over the whole deposit, 47 (0.25%) got an active call. 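Signals are raw, not normalised; exact z-scores behind calls not deposited; actives needed confirmation, so some wells reaching 2 SD are inactive.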 Reagents against one gene are numbered here. Names joined by + are all predicted targets of the reagent.

gene | reagent | SD above plate mean | raw ATP luminescence, replicate 1 | raw ATP luminescence, replicate 2 | call
CG40583 (retired record) | 1 | – | 2.18e5 | 2.31e5 | inactive
AMPdeam | 1 | – | 2.45e5 | 2.90e5 | inactive
AMPdeam | 2 | – | 3.00e5 | 3.35e5 | inactive
AMPdeam | 3 | – | 2.38e5 | 2.26e5 | inactive
TotF | 1 | – | 34673 | 21760 | inactive
Eip74EF | 1 | – | 14353 | 14693 | inactive
Eip74EF | 2 | – | 55677 | 52060 | inactive
ZnT77C | 1 | – | 63307 | 65647 | inactive
ZnT77C | 2 | – | 86107 | 83957 | inactive
Tfb1 | 1 | – | 62923 | 38933 | inactive
CG34353 | 1 | – | 38800 | 49580 | inactive
CG34353 | 2 | – | 40830 | 44860 | inactive
CG34353 | 3 | – | 72850 | 57990 | inactive
CG34353 | 4 | – | 67270 | 63110 | inactive
Bulli | 1 | – | 79740 | 85687 | inactive
MED11 | 1 | – | 28103 | 12893 | inactive
klg | 1 | – | 3.11e5 | 2.63e5 | inactive
klg | 2 | – | 50440 | 60570 | inactive
Trs20 | 1 | – | 78913 | 69403 | inactive
CG4704 | 1 | – | 71080 | 70170 | inactive
CG32110 | 1 | – | 77777 | 82247 | inactive
CG16775 | 1 | – | 70843 | 48437 | inactive
Arl1 | 1 | 2 to 3 SD above plate mean | 1.13e5 | 94423 | inactive
Osi21 | 1 | – | 40227 | 48420 | inactive
hmw | 1 | – | 31120 | 31663 | inactive
CG32590 | 1 | – | 3.30e5 | 2.72e5 | inactive
mfas | 1 | – | 79200 | 46373 | inactive
na | 1 | – | 2.83e5 | 2.23e5 | inactive
CG10510 | 1 | – | 34473 | 39137 | inactive
Vha16-5 | 1 | – | 33790 | 53557 | inactive
CG30269 | 1 | – | 77710 | 61487 | inactive
Mabi | 1 | – | 49337 | 48700 | inactive
CG13121 (retired record) | 1 | – | 42043 | 85073 | inactive
Gpdh3 | 1 | – | 2.33e5 | 2.15e5 | inactive
Gpdh3 | 2 | – | 66980 | 61510 | inactive
sunz | 1 | 2 to 3 SD above plate mean | 85560 | 89607 | active
CG14568 | 1 | – | 47107 | 70833 | inactive
Ttc30 | 1 | – | 3.03e5 | 3.30e5 | inactive
Ttc30 | 2 | – | 65387 | 76440 | inactive
Hacd1 | 1 | – | 1.01e5 | 62440 | inactive
SLC5A11 | 1 | – | 1.01e5 | 62770 | inactive
Art4 | 1 | – | 42617 | 52530 | inactive
CG17636 | 1 | – | 3.66e5 | 3.53e5 | inactive
Polr2H | 1 | – | 24233 | 23377 | inactive
CG10366 | 1 | – | 57473 | 60133 | inactive
Taf11 | 1 | – | 38077 | 71317 | inactive
CG11362 | 1 | – | 45213 | 52107 | inactive
CG6178 | 1 | – | 35400 | 52107 | inactive
CG15628 | 1 | – | 1.30e5 | 1.16e5 | inactive
CG15628 | 2 | – | 34243 | 40393 | inactive
Zip48C | 1 | – | 52417 | 43397 | inactive
CG12983 | 1 | – | 85030 | 66230 | inactive
CG14691 | 1 | – | 60783 | 77137 | inactive

Part of the list above, limited to “raw ATP luminescence, replicate 2”.
CG13121 (retired record): 85073
Gpdh3 #1: 2.15e5
Gpdh3 #2: 61510
sunz: 89607
CG14568: 70833

The list goes on:
gene | reagent | SD above plate mean | raw ATP luminescence, replicate 1 | raw ATP luminescence, replicate 2 | call
Tao | 1 | – | 2.12e5 | 1.86e5 | inactive
Tao | 2 | – | 3.55e5 | 3.04e5 | inactive
CG15446 | 1 | – | 3.38e5 | 3.57e5 | inactive
Rab9D + Rab9Fa + Rab9E | 1 | – | 3.06e5 | 3.09e5 | inactive
CG13000 | 1 | – | 2.72e5 | 2.21e5 | inactive
CG12206 | 1 | – | 45590 | 41440 | inactive
Hsc70-2 | 1 | – | 71080 | 67880 | inactive
CG5347 | 1 | – | 4.16e5 | 3.60e5 | inactive
lncRNA:CR32661 | 1 | – | 3.57e5 | 3.25e5 | inactive
CG10737 | 1 | – | 76383 | 66867 | inactive
Nlg1 | 1 | – | 78747 | 56393 | inactive
Nlg1 | 2 | – | 68870 | 56810 | inactive
Nlg1 | 3 | – | 67857 | 59290 | inactive
Nlg1 | 4 | – | 67963 | 63363 | inactive
dlp | 1 | – | 13747 | 12037 | inactive
dlp | 2 | – | 69903 | 55580 | inactive
OS9 | 1 | – | 60343 | 63513 | inactive
GILT3 | 1 | – | 65840 | 58870 | inactive
CG43333 | 1 | – | 54300 | 72827 | inactive
CG7084 | 1 | – | 46420 | 47087 | inactive
cGlr2 | 1 | – | 73573 | 67613 | inactive
dachs | 1 | – | 1.26e5 | 94063 | inactive
dachs | 2 | – | 36607 | 78873 | inactive
Tmlh | 1 | – | 60180 | 61070 | inactive
GstT2 | 1 | – | 42033 | 77183 | inactive
CG15715 | 1 | – | 94530 | 57593 | inactive
Cyp6w1 | 1 | – | 57697 | 57140 | inactive
CG33229 | 1 | – | 1.27e5 | 79783 | inactive
CG11060 | 1 | – | 68533 | 52717 | inactive
CG14933 + CG42486 | 1 | – | 37567 | 48287 | inactive
CG6195 | 1 | – | 58760 | 83660 | inactive
